Experimental data: PubChem BioAssay AID652243 (Drosophila RNAi Screening Center, 2013)
Aim: 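Knock-downs that decrease or increase androgen receptor reporter signal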 (primary screen). Cells: Drosophila S2R+ cells. Reagents: long dsRNA against Drosophila genes. Duration: 72 h (48 h, then 24 h hormone). Treatment: synthetic androgen R1881 at 10 nM for 24 h. Detection: 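Per-well raw luminescence of the androgen-driven firefly reporter and of the Renilla control, two replicates each, without normalisation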. Reading the numbers: firefly reporter light: higher = more light from androgen-responsive reporter; Renilla control light: higher = more constitutive control signal (cell number, transfection). Rule for the call: 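Across duplicate plates, a knock-down whose log firefly/Renilla ratio shifted a set fold down or up from the GFP/LacZ control mean was a hit; the downward cut appears as both 1.5 and 3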. Meaning of the calls: active = hit: reporter lowered or raised; inactive = no hit.
The screen tested about 24,000 reagents; shown is an unselected part of those with a known target gene and a result. Of all reagents, 246 (1%) were called active. 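Plates not normalised; calls are printed but the firefly/Renilla ratio behind them is not deposited; fold cut for lowering reported inconsistently.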 Raw values vary from plate to plate and are shown uncorrected. The record does not give: the amount of reagent.

target gene | dsRNA | firefly reporter light, replicate 1 | firefly reporter light, replicate 2 | Renilla control light, replicate 1 | Renilla control light, replicate 2 | call
Psn (Presenilin) | DRSC11743 | 2.88e5 | 3.08e5 | 2.15e6 | 2.84e6 | inactive
Slc25A46a | DRSC20125 | 1.12e5 | 90221 | 9.01e5 | 8.74e5 | inactive
CG8243 | DRSC07122 | 4.73e5 | 3.01e5 | 2.97e6 | 1.91e6 | inactive
CG8243 | DRSC23414 | 5.08e5 | 8.72e5 | 6.84e5 | 1.18e6 | inactive
CG12576 | DRSC20621 | 2.35e5 | 1.43e5 | 5.34e5 | 4.93e5 | inactive
CG12576 | DRSC26254 | 2.85e5 | 3.85e5 | 3.00e5 | 5.78e5 | inactive
CG30161 | DRSC22141 | 9.15e5 | 8.97e5 | 4.91e5 | 5.84e5 | inactive
E(spl)m8-HLH (Enhancer of split m8, helix-loop-helix) | DRSC16654 | 1.87e5 | 2.12e5 | 2.22e6 | 2.09e6 | inactive
E(spl)m8-HLH (Enhancer of split m8, helix-loop-helix) | DRSC28065 | 3.86e5 | 4.47e5 | 1.46e6 | 1.20e6 | inactive
CG17349 | DRSC02610 | 1.70e5 | 2.08e5 | 1.64e6 | 1.56e6 | inactive
CG3345 | DRSC00596 | 1.12e6 | 5.76e5 | 3.45e6 | 9.84e5 | inactive
SiaT (Sialyltransferase) | DRSC04494 | 1.21e5 | 1.32e5 | 1.20e6 | 9.31e5 | inactive
CG6041 | DRSC18396 | 3.77e5 | 2.19e5 | 2.67e6 | 1.91e6 | inactive
CG6041 | DRSC24234 | 6.91e5 | 6.23e5 | 9.27e5 | 9.17e5 | inactive
RpS13 (Ribosomal protein S13) | DRSC03419 | 3.88e5 | 5.14e5 | 1.10e6 | 1.19e6 | inactive
RpS13 (Ribosomal protein S13) | DRSC28558 | 1.88e5 | 3.70e5 | 6.89e5 | 1.01e6 | inactive
polybromo | DRSC14307 | 42904 | 77869 | 4.13e5 | 4.31e5 | inactive
CG34386 | DRSC06468 | 65762 | 86868 | 1.42e6 | 1.42e6 | inactive
CG34386 | DRSC23234 | 5.92e5 | 6.57e5 | 1.45e6 | 1.29e6 | inactive
CG34386 | DRSC29597 | 4.47e5 | 5.09e5 | 1.09e6 | 1.09e6 | inactive
CG10139 | DRSC05972 | 1.15e6 | 1.10e6 | 8.28e5 | 8.15e5 | inactive
CG15296 | DRSC17983 | 4.65e5 | 3.22e5 | 4.06e6 | 3.28e6 | inactive
CG15296 | DRSC26051 | 2.13e5 | 3.67e5 | 8.70e5 | 9.98e5 | inactive
CG7886 | DRSC16333 | 2.59e5 | 2.26e5 | 1.92e6 | 2.36e6 | inactive

3 consecutive reagents already listed:
target gene | dsRNA | firefly reporter light, replicate 1 | firefly reporter light, replicate 2 | Renilla control light, replicate 1 | Renilla control light, replicate 2 | call
CG17349 | DRSC02610 | 1.70e5 | 2.08e5 | 1.64e6 | 1.56e6 | inactive
CG3345 | DRSC00596 | 1.12e6 | 5.76e5 | 3.45e6 | 9.84e5 | inactive
SiaT (Sialyltransferase) | DRSC04494 | 1.21e5 | 1.32e5 | 1.20e6 | 9.31e5 | inactive
